Test results: patent US20260258048A1, “LACTAM-CONTAINING IMIDAZOPYRIDAZINE IL-17 INHIBITOR COMPOUNDS” (Janssen Pharmaceutica NV, priority 2023, published 2026)

Tested on: IL-17A-induced G-CSF production in human normal keratinocyte (NHK)
Assay: NHK assay: IL-17A-induced G-CSF production in normal human keratinocytes
Type: cell-based
Details: (S)-configuration on C-3 (cis) vs (R)-epimer (trans): Example 51 vs 52, Example 59 vs 60
Description: IL-17A acts directly on keratinocytes through binding to dimeric receptor IL-17RA/RC and drives the production of a number of inflammatory mediators known to be elevated in psoriasis lesional tissue. IL-17A small molecule inhibitors that block the IL-17A to interact with IL-17R would inhibit the IL-17A signaling in its targeted cells such as keratinocytes. The compound functional activity is evaluated for its impact on IL-17A-induced G-CSF production in human normal keratinocyte (NHK).
Adult normal human keratinocytes are cultured in keratinocyte growth medium (Lonza) in a flask till reaching ~90% confluence, then cells are transferred to a 384-well plate at density of 3000-4000 cell/well. Recombinant human IL-17A (Gibco PHC9174) is pre-incubated with titrated compound or DMSO for 1 h at rt then added to the cell culture plate. The final concentration of IL-17A is 5 ng/mL and DMSO is 0.2%, in the culture containing 5% FBS. Cells are cultured/treated for 24 h at 37° C. Supernatants are collected and G-CSF production is measured through HTRF technology using Human G-CSF Kit (CisBio). G-CSF concentration was extrapolated from the standard curve and IC50 is determined using GraphPad Prism. Cell viability is also evaluated using CellTiter-Glo kit (Promega) and effect of compound on cell viability is compared to DMSO control.

Compound | potency increase in the NHK IC50 when compared to its C-3 epimer
O=C(N[C@H](c1cn2ncc(C[C@H]3C[C@@H](C(F)(F)F)NC3=O)cc2n1)C1CCC(F)(F)CC1)c1nonc1C1CC1 [Example 59, 4-Cyclopropyl-N—[(S)-(4,4-difluorocyclohexyl)-[7-[[(3S,5S)-2-oxo-5-(trifluoromethyl)pyrrolidin-3-yl]methyl]imidazo[1,2-b]pyridazin-2-yl]methyl]-1,2,5-oxadiazole-3-carboxamide] | more than 80 fold
CC(C)n1nccc1C(=O)N[C@H](c1cn2ncc(C[C@H]3C[C@@H](C(F)(F)F)NC3=O)cc2n1)C1CCC(F)(F)CC1 [Example 51, N—((S)-(4,4-Difluorocyclohexyl)(7-(((3S,5S)-2-oxo-5-(trifluoromethyl)pyrrolidin-3-yl)methyl)imidazo[1,2-b]pyridazin-2-yl)methyl)-1-isopropyl-1H-pyrazole-5-carboxamide] | more than 100 fold
